# The other results are listed elsewhere or left out.
# The chains behind the UniProt entries cited, without tags or fusion partners. Where a name states a change or a piece, a line headed by the entry shows the natural chain unless it says otherwise.
# UniProt Q8TBC4: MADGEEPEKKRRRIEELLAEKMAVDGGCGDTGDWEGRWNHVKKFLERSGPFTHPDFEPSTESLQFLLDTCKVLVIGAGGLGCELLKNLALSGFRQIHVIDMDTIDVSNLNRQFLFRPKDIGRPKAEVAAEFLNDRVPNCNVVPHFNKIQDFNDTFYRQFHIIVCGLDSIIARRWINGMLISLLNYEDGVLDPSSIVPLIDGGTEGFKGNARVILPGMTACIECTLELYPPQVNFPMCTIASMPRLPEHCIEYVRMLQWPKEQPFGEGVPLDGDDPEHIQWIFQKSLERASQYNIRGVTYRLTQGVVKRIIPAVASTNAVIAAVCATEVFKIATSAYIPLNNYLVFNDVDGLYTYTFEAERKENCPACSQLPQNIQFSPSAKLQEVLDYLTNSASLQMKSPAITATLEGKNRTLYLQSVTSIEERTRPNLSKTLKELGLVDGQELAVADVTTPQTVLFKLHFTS
# UniProt Q8WVN8: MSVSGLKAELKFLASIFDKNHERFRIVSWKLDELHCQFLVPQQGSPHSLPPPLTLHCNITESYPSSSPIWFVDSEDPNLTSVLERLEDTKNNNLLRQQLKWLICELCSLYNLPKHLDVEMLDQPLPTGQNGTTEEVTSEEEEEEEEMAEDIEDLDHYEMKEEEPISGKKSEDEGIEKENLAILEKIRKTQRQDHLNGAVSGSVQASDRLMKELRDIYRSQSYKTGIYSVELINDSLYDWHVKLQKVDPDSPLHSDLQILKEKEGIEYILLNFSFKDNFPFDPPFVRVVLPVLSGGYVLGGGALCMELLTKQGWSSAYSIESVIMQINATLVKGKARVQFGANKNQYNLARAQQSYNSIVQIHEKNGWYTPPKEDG
# UniProt Q9BSJ2, whole entry, looked up: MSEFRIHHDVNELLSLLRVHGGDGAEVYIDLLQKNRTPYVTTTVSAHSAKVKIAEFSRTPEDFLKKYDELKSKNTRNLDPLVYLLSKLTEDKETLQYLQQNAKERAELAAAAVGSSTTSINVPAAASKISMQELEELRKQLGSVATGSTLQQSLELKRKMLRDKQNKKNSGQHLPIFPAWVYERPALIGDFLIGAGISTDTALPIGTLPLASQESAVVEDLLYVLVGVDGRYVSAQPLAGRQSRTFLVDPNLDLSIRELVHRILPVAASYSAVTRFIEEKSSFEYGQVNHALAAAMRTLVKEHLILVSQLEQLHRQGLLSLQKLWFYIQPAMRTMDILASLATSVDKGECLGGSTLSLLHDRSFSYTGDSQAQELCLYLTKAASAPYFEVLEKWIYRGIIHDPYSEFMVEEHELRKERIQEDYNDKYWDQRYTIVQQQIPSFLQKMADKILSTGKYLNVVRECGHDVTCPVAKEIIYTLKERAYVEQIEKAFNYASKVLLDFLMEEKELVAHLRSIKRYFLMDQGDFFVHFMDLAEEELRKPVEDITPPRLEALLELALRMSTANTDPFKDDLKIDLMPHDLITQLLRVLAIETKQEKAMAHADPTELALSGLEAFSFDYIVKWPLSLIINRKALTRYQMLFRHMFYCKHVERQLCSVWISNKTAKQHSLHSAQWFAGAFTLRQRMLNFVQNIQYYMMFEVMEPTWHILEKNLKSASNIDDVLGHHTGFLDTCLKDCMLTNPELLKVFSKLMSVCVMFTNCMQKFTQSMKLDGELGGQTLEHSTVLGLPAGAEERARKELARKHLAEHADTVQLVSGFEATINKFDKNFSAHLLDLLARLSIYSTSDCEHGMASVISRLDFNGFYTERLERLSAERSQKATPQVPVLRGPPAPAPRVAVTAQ
# UniProt Q96S82: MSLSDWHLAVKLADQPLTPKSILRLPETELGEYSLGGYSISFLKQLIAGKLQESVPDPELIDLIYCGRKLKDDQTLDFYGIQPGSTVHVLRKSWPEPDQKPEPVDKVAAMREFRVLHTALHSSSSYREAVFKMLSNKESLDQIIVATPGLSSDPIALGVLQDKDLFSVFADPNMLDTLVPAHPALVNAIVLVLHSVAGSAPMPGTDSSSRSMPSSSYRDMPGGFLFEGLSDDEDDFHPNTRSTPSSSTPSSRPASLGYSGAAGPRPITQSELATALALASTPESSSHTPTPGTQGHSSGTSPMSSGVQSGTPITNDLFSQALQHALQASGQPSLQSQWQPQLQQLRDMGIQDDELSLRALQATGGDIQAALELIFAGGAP
# UniProt P63279, whole entry, looked up: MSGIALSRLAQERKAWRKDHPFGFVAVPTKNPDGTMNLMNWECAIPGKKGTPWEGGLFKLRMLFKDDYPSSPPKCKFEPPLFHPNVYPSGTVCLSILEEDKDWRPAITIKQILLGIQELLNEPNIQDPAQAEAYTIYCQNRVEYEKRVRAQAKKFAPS
# UniProt Q9GZZ9, whole entry, looked up: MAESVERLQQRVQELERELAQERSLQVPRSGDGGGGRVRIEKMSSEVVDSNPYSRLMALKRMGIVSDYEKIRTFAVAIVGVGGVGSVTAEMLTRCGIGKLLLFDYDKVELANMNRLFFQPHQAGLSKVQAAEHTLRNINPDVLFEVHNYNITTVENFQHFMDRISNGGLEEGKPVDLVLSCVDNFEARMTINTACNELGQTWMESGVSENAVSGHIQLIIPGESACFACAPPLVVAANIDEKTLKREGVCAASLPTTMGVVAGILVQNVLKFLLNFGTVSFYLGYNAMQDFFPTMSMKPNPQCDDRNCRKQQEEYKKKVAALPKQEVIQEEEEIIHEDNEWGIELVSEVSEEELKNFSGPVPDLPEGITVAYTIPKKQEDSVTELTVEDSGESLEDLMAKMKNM
# UniProt Q5VYS8: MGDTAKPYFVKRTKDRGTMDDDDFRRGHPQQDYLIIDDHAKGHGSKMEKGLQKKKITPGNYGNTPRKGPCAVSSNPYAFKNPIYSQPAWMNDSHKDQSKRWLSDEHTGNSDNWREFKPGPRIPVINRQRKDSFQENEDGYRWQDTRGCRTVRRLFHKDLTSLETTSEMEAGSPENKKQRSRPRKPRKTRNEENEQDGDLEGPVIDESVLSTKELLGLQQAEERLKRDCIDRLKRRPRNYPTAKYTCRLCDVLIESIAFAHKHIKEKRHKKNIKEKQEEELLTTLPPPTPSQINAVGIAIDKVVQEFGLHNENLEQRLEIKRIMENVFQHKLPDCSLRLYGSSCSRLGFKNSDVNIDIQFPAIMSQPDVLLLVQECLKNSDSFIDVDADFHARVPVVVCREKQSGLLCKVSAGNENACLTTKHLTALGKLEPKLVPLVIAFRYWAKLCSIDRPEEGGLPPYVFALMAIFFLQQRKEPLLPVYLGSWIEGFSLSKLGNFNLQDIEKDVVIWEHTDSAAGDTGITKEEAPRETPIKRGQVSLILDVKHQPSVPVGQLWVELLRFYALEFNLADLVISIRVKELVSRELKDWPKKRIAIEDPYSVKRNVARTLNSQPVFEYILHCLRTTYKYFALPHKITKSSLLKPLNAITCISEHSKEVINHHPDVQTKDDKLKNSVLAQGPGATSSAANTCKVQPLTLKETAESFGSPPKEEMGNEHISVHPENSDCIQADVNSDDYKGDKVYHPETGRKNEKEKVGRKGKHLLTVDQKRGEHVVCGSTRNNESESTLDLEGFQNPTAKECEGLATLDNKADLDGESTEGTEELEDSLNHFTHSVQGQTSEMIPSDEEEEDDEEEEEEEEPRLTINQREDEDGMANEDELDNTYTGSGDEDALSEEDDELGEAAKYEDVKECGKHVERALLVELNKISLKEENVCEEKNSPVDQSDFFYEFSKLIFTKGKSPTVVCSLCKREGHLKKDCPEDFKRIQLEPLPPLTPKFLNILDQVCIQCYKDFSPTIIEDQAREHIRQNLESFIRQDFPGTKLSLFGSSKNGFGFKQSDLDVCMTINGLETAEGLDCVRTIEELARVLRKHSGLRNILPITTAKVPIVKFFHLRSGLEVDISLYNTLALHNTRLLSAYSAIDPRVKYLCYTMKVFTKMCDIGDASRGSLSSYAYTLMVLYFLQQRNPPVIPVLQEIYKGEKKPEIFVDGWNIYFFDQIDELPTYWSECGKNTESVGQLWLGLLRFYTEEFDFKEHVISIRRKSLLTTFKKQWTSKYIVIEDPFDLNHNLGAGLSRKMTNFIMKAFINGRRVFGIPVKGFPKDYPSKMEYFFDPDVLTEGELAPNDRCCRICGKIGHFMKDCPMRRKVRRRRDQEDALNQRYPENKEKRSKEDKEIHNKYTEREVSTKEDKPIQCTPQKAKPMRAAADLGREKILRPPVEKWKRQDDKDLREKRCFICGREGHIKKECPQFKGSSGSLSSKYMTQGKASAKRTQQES
# UniProt P15374: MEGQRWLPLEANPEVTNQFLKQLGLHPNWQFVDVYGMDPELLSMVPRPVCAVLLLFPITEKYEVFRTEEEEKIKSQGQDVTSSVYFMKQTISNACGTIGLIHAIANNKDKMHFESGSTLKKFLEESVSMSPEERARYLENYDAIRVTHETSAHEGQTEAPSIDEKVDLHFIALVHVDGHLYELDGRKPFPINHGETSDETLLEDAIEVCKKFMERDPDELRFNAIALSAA
# UniProt Q9NX01: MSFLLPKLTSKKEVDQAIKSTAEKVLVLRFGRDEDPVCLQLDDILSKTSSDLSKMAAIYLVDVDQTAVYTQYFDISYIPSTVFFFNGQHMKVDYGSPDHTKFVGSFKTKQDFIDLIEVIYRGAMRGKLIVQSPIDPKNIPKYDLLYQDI
# UniProt Q9BRA2: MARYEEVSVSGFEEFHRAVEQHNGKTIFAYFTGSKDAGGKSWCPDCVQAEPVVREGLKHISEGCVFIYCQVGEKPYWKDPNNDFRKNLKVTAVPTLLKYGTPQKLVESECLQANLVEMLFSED
# UniProt P68036, whole entry, looked up: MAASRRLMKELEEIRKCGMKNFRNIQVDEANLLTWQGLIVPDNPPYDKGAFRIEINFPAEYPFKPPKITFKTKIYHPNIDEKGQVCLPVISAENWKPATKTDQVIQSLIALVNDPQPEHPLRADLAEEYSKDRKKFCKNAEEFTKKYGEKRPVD
# UniProt Q92575: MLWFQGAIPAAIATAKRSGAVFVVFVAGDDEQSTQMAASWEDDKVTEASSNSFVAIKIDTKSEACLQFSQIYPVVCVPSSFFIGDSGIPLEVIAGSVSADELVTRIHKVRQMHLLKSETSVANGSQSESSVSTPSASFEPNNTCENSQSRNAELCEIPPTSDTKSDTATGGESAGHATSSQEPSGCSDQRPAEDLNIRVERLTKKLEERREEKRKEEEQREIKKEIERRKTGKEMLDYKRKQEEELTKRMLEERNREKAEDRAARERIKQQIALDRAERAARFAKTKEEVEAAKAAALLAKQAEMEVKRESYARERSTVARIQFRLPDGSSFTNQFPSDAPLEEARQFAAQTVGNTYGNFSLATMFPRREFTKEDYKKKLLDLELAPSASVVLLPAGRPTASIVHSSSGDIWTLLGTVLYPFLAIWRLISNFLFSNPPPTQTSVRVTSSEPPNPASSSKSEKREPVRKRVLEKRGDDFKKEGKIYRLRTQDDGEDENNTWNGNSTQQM
# UniProt O95881: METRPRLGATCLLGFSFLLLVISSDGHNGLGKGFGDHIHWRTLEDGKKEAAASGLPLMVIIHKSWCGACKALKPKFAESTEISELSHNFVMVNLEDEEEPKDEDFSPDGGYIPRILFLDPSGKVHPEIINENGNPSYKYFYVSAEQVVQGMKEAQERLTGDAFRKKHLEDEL
# UniProt P22314: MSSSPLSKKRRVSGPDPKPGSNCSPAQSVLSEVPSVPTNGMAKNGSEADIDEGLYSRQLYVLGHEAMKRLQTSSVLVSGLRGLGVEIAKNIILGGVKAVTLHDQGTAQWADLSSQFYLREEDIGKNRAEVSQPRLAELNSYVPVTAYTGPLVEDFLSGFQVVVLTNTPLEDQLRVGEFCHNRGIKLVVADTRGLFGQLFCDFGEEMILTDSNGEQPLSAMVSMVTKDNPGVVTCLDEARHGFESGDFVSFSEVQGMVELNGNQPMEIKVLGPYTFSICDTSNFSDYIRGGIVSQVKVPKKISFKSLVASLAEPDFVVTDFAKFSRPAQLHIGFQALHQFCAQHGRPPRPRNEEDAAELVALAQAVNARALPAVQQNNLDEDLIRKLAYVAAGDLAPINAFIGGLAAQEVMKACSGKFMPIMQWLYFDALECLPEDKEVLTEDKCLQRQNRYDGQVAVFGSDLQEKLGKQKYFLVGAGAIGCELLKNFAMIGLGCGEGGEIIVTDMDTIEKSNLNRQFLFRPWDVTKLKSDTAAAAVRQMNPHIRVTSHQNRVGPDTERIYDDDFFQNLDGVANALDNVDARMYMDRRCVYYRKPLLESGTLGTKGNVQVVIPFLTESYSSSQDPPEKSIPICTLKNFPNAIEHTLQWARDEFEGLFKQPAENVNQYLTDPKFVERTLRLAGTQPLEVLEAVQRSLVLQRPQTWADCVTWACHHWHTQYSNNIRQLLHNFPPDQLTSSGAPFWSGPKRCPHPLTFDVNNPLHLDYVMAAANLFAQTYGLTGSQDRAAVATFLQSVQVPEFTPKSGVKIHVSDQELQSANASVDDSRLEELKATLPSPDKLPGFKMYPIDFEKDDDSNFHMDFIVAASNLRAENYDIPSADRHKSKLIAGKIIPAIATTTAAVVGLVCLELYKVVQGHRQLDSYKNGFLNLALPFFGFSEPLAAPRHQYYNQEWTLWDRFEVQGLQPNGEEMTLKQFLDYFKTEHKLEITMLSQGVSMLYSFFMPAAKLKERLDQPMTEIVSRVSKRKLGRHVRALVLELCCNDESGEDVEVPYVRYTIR
# Columns and labels:
# Assay in all cases: log2 fold change, soluble protein after heating vs DMSO (PISA); higher = thermal stabilisation; K562 lysate, 10 uM; active = over 0.2 and 3.5 SD of the protein, either way, in both replicates (recomputed)
# vemurafenib = compound: CCCS(=O)(=O)Nc1ccc(F)c(C(=O)c2c[nH]c3ncc(-c4ccc(Cl)cc4)cc23)c1F [vemurafenib]
# In short: (§1)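 Dounce homogenisation of K562 pellets in PBS pH 7.4 with 1 mM MgCl2 produced a crude extract, used at 1 mg/mL protein. Exposure to 10 μM compound lasted 30 min, and aliquots were then heated for 3 min across 48°C-58°C, pooled and brought to 0.5% NP-40 at 4°C. The supernatant after 21,000xg for 90 min was quantified by TMTpro 16plex LC-MS/MS with channel sums equalised. Duplicate values are given as log-two fold change in thermal stability relative to solvent controls.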
# [1] = compound: CCCS(=O)(=O)Nc1ccc(F)c(C(=O)c2c[nH]c3ncc(Cl)cc23)c1F
# In short: as §1
# barasertib = compound: CCN(CCCOc1ccc2c(Nc3cc(CC(=O)Nc4cccc(F)c4)[nH]n3)ncnc2c1)CCOP(=O)(O)O [barasertib]
# In short: as §1
# [2] = compound: CC[C@@H]1C(=O)N(C)c2cnc(Nc3ccc(C(=O)NC4CCN(C)CC4)cc3OC)nc2N1C1CCCC1
# In short: as §1
# volasertib = compound: CC[C@@H]1C(=O)N(C)c2cnc(Nc3ccc(C(=O)N[C@H]4CC[C@H](N5CCN(CC6CC6)CC5)CC4)cc3OC)nc2N1C(C)C [volasertib]
# In short: as §1
# [3] = compound: CCn1c(C(=O)N(C2CC2)C2CC2)cc2c3c(ncn3C)c(Nc3cc(C)n(C)n3)nc21
# In short: as §1
# [4] = compound: CCn1cc(-c2ccnc3[nH]c(-c4cccc(CN(C)C)c4)cc23)c(-c2ccc(NC(=O)N(C)C)cc2)n1
# In short: as §1
# [5] = compound: CN1CCC(CNc2ccc3ncc(-c4cccc(OC(F)(F)F)c4)n3n2)CC1
# In short: as §1
# saracatinib = compound: CN1CCN(CCOc2cc(OC3CCOCC3)c3c(Nc4c(Cl)ccc5c4OCO5)ncnc3c2)CC1 [saracatinib]
# In short: as §1
# sotrastaurin = compound: CN1CCN(c2nc(C3=C(c4c[nH]c5ccccc45)C(=O)NC3=O)c3ccccc3n2)CC1 [sotrastaurin]
# In short: as §1
Target,log2 fold change (vemurafenib),log2 fold change [1],log2 fold change (barasertib),log2 fold change [2],log2 fold change (volasertib),log2 fold change [3],log2 fold change [4],log2 fold change [5],log2 fold change (saracatinib),log2 fold change (sotrastaurin)
UBTF (UniProt P17480),inactive: -0.024,inactive: 0.002,inactive: 0.011,active: -0.291,inactive: -0.011,inactive: 0.002,inactive: 0.038,inactive: -0.067,inactive: 0.042,inactive: 0.023
UBA3 (UniProt Q8TBC4),inactive: 0.007,inactive: 0.025,inactive: -0.008,inactive: -0.035,inactive: -0.013,inactive: 0.024,inactive: -0.011,inactive: 0.047,inactive: -0.017,inactive: 0.004
UBE2Q2 (UniProt Q8WVN8),inactive: 0.176,inactive: -0.077,inactive: 0.06,inactive: 0.305,inactive: -0.015,inactive: 0.072,inactive: 0.017,inactive: 0.071,inactive: 0.057,–
UAP1L1 (UniProt Q3KQV9),inactive: -0.15,inactive: -0.014,inactive: 0.024,inactive: -0.029,inactive: -0.097,inactive: -0.072,inactive: 0.25,inactive: -0.131,inactive: 0.188,inactive: 0.031
TUBGCP2 isoform 4 (UniProt Q9BSJ2),inactive: 0.02,inactive: 0.01,inactive: 0.027,inactive: 0.001,inactive: -0.049,inactive: 0.021,inactive: 0.078,inactive: -0.064,inactive: -0.035,inactive: 0
UBA2 (UniProt Q9UBT2),inactive: 0.001,inactive: -0.023,inactive: -0.02,inactive: 0.011,inactive: 0.01,inactive: 0.01,inactive: 0.013,inactive: 0.02,inactive: 0,inactive: 0.009
TUBA1B (UniProt P68363),inactive: 0.009,inactive: 0,inactive: 0.013,inactive: -0.02,inactive: -0.046,inactive: 0.013,inactive: -0.008,inactive: -0.011,inactive: 0.003,inactive: 0.017
UBL7 (UniProt Q96S82),inactive: -0.005,inactive: -0.012,inactive: 0.086,inactive: -0.029,inactive: 0.017,inactive: -0.013,inactive: -0.032,inactive: -0.089,inactive: -0.014,inactive: -0.044
UBE2I (UniProt P63279),inactive: -0.03,inactive: -0.007,inactive: -0.006,inactive: 0.047,inactive: 0.016,inactive: -0.057,inactive: -0.123,inactive: 0.023,inactive: -0.01,inactive: -0.013
UBA5 (UniProt Q9GZZ9),inactive: -0.058,inactive: 0.007,inactive: 0.006,inactive: -0.026,inactive: -0.018,inactive: -0.01,inactive: 0.03,inactive: 0.048,inactive: 0.001,inactive: -0.005
TUBGCP5 (UniProt Q96RT8),inactive: -0.023,inactive: -0.351,inactive: -0.057,inactive: -0.204,inactive: 0,inactive: 0.004,inactive: -0.06,inactive: 0.088,inactive: -0.075,inactive: 0.033
UBE2H (UniProt P62256),inactive: -0.032,inactive: -0.013,inactive: -0.006,inactive: 0.011,inactive: 0.004,inactive: -0.055,inactive: 0.166,active: -0.227,inactive: -0.056,inactive: -0.02
TUT7 (UniProt Q5VYS8),inactive: 0.037,inactive: -0.022,inactive: -0.03,inactive: 0.03,inactive: 0,inactive: -0.018,inactive: 0.03,inactive: -0.1,inactive: 0.171,inactive: -0.145
UCHL3 (UniProt P15374),inactive: -0.033,inactive: -0.016,inactive: 0.063,inactive: -0.063,inactive: 0.01,inactive: 0.037,inactive: -0.102,inactive: 0.013,inactive: -0.003,inactive: 0.01
TXNL4B (UniProt Q9NX01),inactive: -0.015,inactive: 0.03,inactive: 0.976,inactive: -0.069,inactive: 0.024,inactive: 0.112,inactive: -0.029,inactive: 0.022,inactive: 0.006,inactive: -0.073
TXNDC17 (UniProt Q9BRA2),inactive: -0.021,inactive: -0.029,inactive: 0.023,inactive: 0.031,inactive: 0.03,inactive: -0.023,inactive: -0.054,inactive: 0.02,inactive: -0.014,inactive: -0.022
UBE2F isoform 2 (UniProt Q969M7),inactive: -0.004,inactive: 0.015,inactive: -0.084,inactive: 0.015,inactive: -0.057,inactive: -0.031,inactive: 0.114,inactive: 0.009,inactive: -0.116,inactive: -0.138
UBE2L3 isoform 3 (UniProt P68036),inactive: 0.04,inactive: -0.022,inactive: -0.033,inactive: 0.02,inactive: 0.035,inactive: -0.023,inactive: 0.116,inactive: -0.031,inactive: -0.027,inactive: 0.016
UBE2D3 isoform 3 (UniProt P61077),inactive: 0.035,inactive: 0.011,inactive: -0.047,inactive: 0.004,inactive: 0.015,inactive: -0.094,inactive: 0.039,inactive: 0.051,inactive: 0.039,inactive: -0.013
UBXN4 (UniProt Q92575),inactive: 0.064,inactive: 0.004,inactive: -0.024,inactive: 0.022,inactive: -0.074,inactive: -0.023,inactive: -0.209,inactive: 0.184,inactive: 0.03,inactive: -0.015
TXNDC12 (UniProt O95881),inactive: -0.048,inactive: -0.014,inactive: 0.08,inactive: -0.08,inactive: 0.012,inactive: 0.012,inactive: -0.022,inactive: 0.021,inactive: 0.046,inactive: -0.022
TUBA1C (UniProt Q9BQE3),inactive: 0.036,inactive: 0.026,inactive: 0.013,inactive: 0.009,inactive: -0.059,inactive: -0.029,inactive: -0.082,inactive: 0.022,inactive: 0.054,inactive: 0.044
TXLNA (UniProt P40222),inactive: -0.008,inactive: -0.01,inactive: -0.011,inactive: 0.026,inactive: 0.011,inactive: -0.002,inactive: 0.027,inactive: -0.013,inactive: -0.015,inactive: -0.02
TYW3 (UniProt Q6IPR3),inactive: 0.024,inactive: 0.017,inactive: 0.017,inactive: 0.038,inactive: -0.002,inactive: -0.02,inactive: -0.218,inactive: 0.031,inactive: -0.031,inactive: -0.003
TXNDC9 (UniProt O14530),inactive: 0.001,inactive: -0.008,inactive: 0.007,inactive: 0.014,inactive: 0.021,inactive: -0.018,inactive: -0.16,inactive: 0.072,inactive: 0.049,inactive: -0.017
TXN (UniProt P10599),inactive: -0.032,inactive: -0.015,inactive: -0.002,inactive: 0.082,inactive: 0.007,inactive: -0.008,inactive: 0.113,inactive: -0.007,inactive: -0.051,inactive: 0.005
UBE2T (UniProt Q9NPD8),inactive: -0.01,inactive: 0.019,inactive: 0.054,inactive: -0.008,inactive: -0.016,inactive: 0.017,inactive: -0.017,inactive: 0.086,inactive: -0.026,inactive: -0.015
UBA1 (UniProt P22314),inactive: 0.018,inactive: 0.005,inactive: 0.023,inactive: -0.063,inactive: -0.036,inactive: -0.006,inactive: -0.027,inactive: 0.004,inactive: -0.02,inactive: 0.008
UCHL5 isoform 3 (UniProt Q9Y5K5),inactive: 0.013,inactive: 0.016,inactive: -0.001,inactive: -0.019,inactive: -0.017,inactive: 0.014,inactive: 0.164,inactive: -0.06,inactive: -0.012,inactive: -0.005
UBAP2 (UniProt Q5T6F2),inactive: 0.009,inactive: 0.016,inactive: -0.007,inactive: 0.071,inactive: -0.002,inactive: 0.004,inactive: -0.172,inactive: 0.106,inactive: 0.028,inactive: 0.02

# As a short view, some entries already given:
Target,log2 fold change (vemurafenib),log2 fold change [1],log2 fold change (barasertib),log2 fold change [2],log2 fold change (volasertib),log2 fold change [3],log2 fold change [4],log2 fold change [5],log2 fold change (saracatinib),log2 fold change (sotrastaurin)
TXNDC9 (UniProt O14530),inactive: 0.001,inactive: -0.008,inactive: 0.007,inactive: 0.014,inactive: 0.021,inactive: -0.018,inactive: -0.16,inactive: 0.072,inactive: 0.049,inactive: -0.017
TXN (UniProt P10599),inactive: -0.032,inactive: -0.015,inactive: -0.002,inactive: 0.082,inactive: 0.007,inactive: -0.008,inactive: 0.113,inactive: -0.007,inactive: -0.051,inactive: 0.005

# From the supplement of paper PMC10849652
